Source: publication PMC12793716, “Linked dimers of the AAA+ ATPase Msp1 reveal energetic demands and mechanistic plasticity for substrate extraction from lipid bilayers” (Febs Letters, 2025)
Results are given in words; binding and its absence hold for the method and conditions named. Where a sequence is shown, tags or fusion partners need not be part of it.

Biological target: T1, Msp1 monomer with a C‐terminal twin strep tag (His6‐Msp1 WT‐2xStrep Monomer), soluble, P28737
T1 chain: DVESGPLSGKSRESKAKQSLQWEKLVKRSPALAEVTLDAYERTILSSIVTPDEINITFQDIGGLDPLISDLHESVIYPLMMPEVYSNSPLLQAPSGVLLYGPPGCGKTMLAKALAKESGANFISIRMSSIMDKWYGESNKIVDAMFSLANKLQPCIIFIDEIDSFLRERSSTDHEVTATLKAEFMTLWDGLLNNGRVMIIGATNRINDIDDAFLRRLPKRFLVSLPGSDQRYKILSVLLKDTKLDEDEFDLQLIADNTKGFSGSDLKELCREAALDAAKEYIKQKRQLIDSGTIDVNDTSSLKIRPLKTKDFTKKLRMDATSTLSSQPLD
Assay: condition: 1.2 mg·mL^−1 (5 μM hexamer/pseudohexamer); SEC; analytical SEC, S200 Increase 3.2/300 GL, 20 mM Tris pH 7.5, 100 mM NaCl, 0.5 mM TCEP; 0.1 mL of 1.2 mg/mL (5 uM hexamer/pseudohexamer) Msp1 with 2 mM ATP, 2 mM MgCl2; 0.1 mL/min; both purified
Details: remark: other sources report otherwise

B1: Msp1 monomer with a C‐terminal twin strep tag (His6‐Msp1 WT‐2xStrep Monomer), soluble, P28737 33-362 (enzyme)
chain: T1 chain
binding: no binding
